Reference: patent US20230406833A1, “HERBICIDAL MALONAMIDES” (BASF SE, priority 2020, published 2023)
Some of these results come from one statement about several compounds together.

Assays:
Assay type in all cases: in vivo
[1] = test system: Echinocloa crus-galli (ECHCG); assay: greenhouse post-emergence herbicidal test; conditions: scale from 0 to 100
[2] = test system: Amaranthus retroflexus (AMARE); assay: greenhouse post-emergence herbicidal test; conditions: scale from 0 to 100
Setaria viridis (SETVI) = assay: greenhouse post-emergence herbicidal test; conditions: scale from 0 to 100
[3] = test system: Echinocloa crus-galli (ECHCG); assay: greenhouse pre-emergence herbicidal test; conditions: scale from 0 to 100
[4] = test system: Amaranthus retroflexus (AMARE); assay: greenhouse pre-emergence herbicidal test; conditions: scale from 0 to 100
[5] = test system: Abutilon theophrasti (ABUTH); assay: greenhouse post-emergence herbicidal test; conditions: 0.250 kg/ha, scale from 0 to 100
[6] = test system: Apera spica-venti (APESV); assay: greenhouse pre-emergence herbicidal test; conditions: 0.250 kg/ha, scale from 0 to 100
Setaria faberi (SETFA) = assay: greenhouse pre-emergence herbicidal test; conditions: 0.250 kg/ha, scale from 0 to 100
Avena fatua (AVEFA) = assay: greenhouse post-emergence herbicidal test; conditions: 0.250 kg/ha, scale from 0 to 100

| Compound | herbicidal activity against ECHCG ([1]; 0.250 kg/ha) | herbicidal activity against AMARE ([2]; 0.250 kg/ha) | herbicidal activity against APESV [6] | herbicidal activity against AMARE ([4]; 0.250 kg/ha) | herbicidal activity against SETVI (Setaria viridis (SETVI); 0.250 kg/ha) | further results |
| --- | --- | --- | --- | --- | --- | --- |
| COC(=O)C[C@H](C)NC(=O)C1(C(=O)Nc2cc(Cl)cc(Cl)c2)CCO1 (stereo partly drawn) [Compound I7, methyl (3S)-3-[[2-[(3,5-dichlorophenyl)carbamoyl]oxetane-2-carbonyl]amino]butanoate] |  |  |  |  |  | herbicidal activity against ECHCG ([1]; 0.500 kg/ha): very good (a very good herbicidal activity is given at values of 90 to 100); herbicidal activity against AMARE ([2]; 0.500 kg/ha): very good (a very good herbicidal activity is given at values of 90 to 100); herbicidal activity against SETVI (Setaria viridis (SETVI); 0.500 kg/ha): very good (a very good herbicidal activity is given at values of 90 to 100); herbicidal activity against ECHCG ([3]; 0.500 kg/ha): very good (a very good herbicidal activity is given at values of 90 to 100); herbicidal activity against AMARE ([4]; 0.500 kg/ha): very good (a very good herbicidal activity is given at values of 90 to 100) |
| COC(=O)C(C)(C)NC(=O)C1(C(=O)Nc2cc(Cl)cc(Cl)c2)C=CCO1 (stereo not shown) [I.186] | very good (a very good herbicidal activity is given at values of 90 to 100) | very good (a very good herbicidal activity is given at values of 90 to 100) | very good (a very good herbicidal activity is given at values of 90 to 100) | very good (a very good herbicidal activity is given at values of 90 to 100) |  | herbicidal activity against ABUTH [5]: good (A good herbicidal activity is given at values of 70 to <90) |
| COCCOC(=O)C1=CC[C@H](NC(=O)C2(C(=O)Nc3cc(Cl)cc(Cl)c3)C=CCO2)C1 (stereo partly shown) [I.90] | very good (a very good herbicidal activity is given at values of 90 to 100) | very good (a very good herbicidal activity is given at values of 90 to 100) | very good (a very good herbicidal activity is given at values of 90 to 100) | good (A good herbicidal activity is given at values of 70 to <90) | very good (a very good herbicidal activity is given at values of 90 to 100) | herbicidal activity against SETFA (Setaria faberi (SETFA)): very good (a very good herbicidal activity is given at values of 90 to 100) |
| CSCCOC(=O)C1=CC[C@H](NC(=O)C2(C(=O)Nc3cc(Cl)cc(Cl)c3)C=CCO2)C1 (stereo partly shown) [I.87] | very good (a very good herbicidal activity is given at values of 90 to 100) | very good (a very good herbicidal activity is given at values of 90 to 100) | very good (a very good herbicidal activity is given at values of 90 to 100) | very good (a very good herbicidal activity is given at values of 90 to 100) | very good (a very good herbicidal activity is given at values of 90 to 100) |  |
| C#CCNC(=O)C1(C(=O)Nc2cc(F)cc(F)c2)CCO1 (racemic) [I.3] |  |  | good (A good herbicidal activity is given at values of 70 to <90) | good (A good herbicidal activity is given at values of 70 to <90) |  |  |
| COC(=O)CC(C)(C)NC(=O)C1(C(=O)Nc2cc(F)cc(F)c2)CCO1 (stereo not shown) [I.144] |  |  | very good (a very good herbicidal activity is given at values of 90 to 100) |  | good (A good herbicidal activity is given at values of 70 to <90) | herbicidal activity against AVEFA (Avena fatua (AVEFA)): very good (a very good herbicidal activity is given at values of 90 to 100); herbicidal activity against ABUTH [5]: good (A good herbicidal activity is given at values of 70 to <90); herbicidal activity against ECHCG ([3]; 0.250 kg/ha): good (A good herbicidal activity is given at values of 70 to <90) |
| COC(=O)C[C@H](C)NC(=O)C1(C(=O)Nc2cc(F)cc(F)c2)CCO1 (stereo partly drawn) [Compound I2, methyl (3S)-3-[[2-[(3,5-difluorophenyl)carbamoyl]oxetane-2-carbonyl]amino]butanoate] |  |  |  |  |  | herbicidal activity against ECHCG ([1]; 0.500 kg/ha): very good (a very good herbicidal activity is given at values of 90 to 100); herbicidal activity against AMARE ([2]; 0.500 kg/ha): good (A good herbicidal activity is given at values of 70 to <90); herbicidal activity against SETVI (Setaria viridis (SETVI); 0.500 kg/ha): good (A good herbicidal activity is given at values of 70 to <90); herbicidal activity against ECHCG ([3]; 0.500 kg/ha): very good (a very good herbicidal activity is given at values of 90 to 100); herbicidal activity against AMARE ([4]; 0.500 kg/ha): very good (a very good herbicidal activity is given at values of 90 to 100) |
| CC(CCC(=O)O)NC(=O)C1(C(=O)Nc2cc(F)cc(F)c2)CCO1 (stereo not shown) [I.136] | very good (a very good herbicidal activity is given at values of 90 to 100) | very good (a very good herbicidal activity is given at values of 90 to 100) | very good (a very good herbicidal activity is given at values of 90 to 100) | very good (a very good herbicidal activity is given at values of 90 to 100) | very good (a very good herbicidal activity is given at values of 90 to 100) |  |
| CC(CCC(=O)O)NC(=O)C1(C(=O)Nc2cc(Cl)cc(Cl)c2)C=CCO1 (stereo not shown) [I.83] | very good (a very good herbicidal activity is given at values of 90 to 100) |  | very good (a very good herbicidal activity is given at values of 90 to 100) |  | very good (a very good herbicidal activity is given at values of 90 to 100) | herbicidal activity against AVEFA (Avena fatua (AVEFA)): very good (a very good herbicidal activity is given at values of 90 to 100); herbicidal activity against ECHCG ([3]; 0.250 kg/ha): very good (a very good herbicidal activity is given at values of 90 to 100); herbicidal activity against SETFA (Setaria faberi (SETFA)): very good (a very good herbicidal activity is given at values of 90 to 100) |
| COC(=O)C12CCC(NC(=O)C3(C(=O)Nc4cc(Cl)cc(Cl)c4)C=CCO3)(C1)C2 (stereo not shown) [I.96] | good (A good herbicidal activity is given at values of 70 to <90) | very good (a very good herbicidal activity is given at values of 90 to 100) | very good (a very good herbicidal activity is given at values of 90 to 100) | good (A good herbicidal activity is given at values of 70 to <90) | good (A good herbicidal activity is given at values of 70 to <90) |  |
| COC(=O)C12CCC(NC(=O)C3(C(=O)Nc4cc(F)cc(F)c4)C=CCO3)(C1)C2 (stereo not shown) [I.99] | very good (a very good herbicidal activity is given at values of 90 to 100) | very good (a very good herbicidal activity is given at values of 90 to 100) | very good (a very good herbicidal activity is given at values of 90 to 100) | good (A good herbicidal activity is given at values of 70 to <90) | good (A good herbicidal activity is given at values of 70 to <90) | herbicidal activity against SETFA (Setaria faberi (SETFA)): very good (a very good herbicidal activity is given at values of 90 to 100) |
| COC(=O)C[C@H](C)NC(=O)C1(C(=O)Nc2cc(Cl)cc(Cl)c2)OC2C=CC1CC2 (stereo partly drawn) [I.174, methyl (3S)-3-[[3-[(3,5-dichlorophenyl)carbamoyl]-2-oxabicyclo[2.2.2]oct-5-ene-3-carbonyl]amino]butanoate] |  |  |  | good (A good herbicidal activity is given at values of 70 to <90) |  |  |
| O=C(O)C1CC(NC(=O)C2(C(=O)Nc3cc(F)cc(F)c3)C=CCO2)C1 (stereo not shown) [I.105] | very good (a very good herbicidal activity is given at values of 90 to 100) | very good (a very good herbicidal activity is given at values of 90 to 100) | very good (a very good herbicidal activity is given at values of 90 to 100) | very good (a very good herbicidal activity is given at values of 90 to 100) | very good (a very good herbicidal activity is given at values of 90 to 100) | herbicidal activity against ECHCG ([3]; 0.250 kg/ha): very good (a very good herbicidal activity is given at values of 90 to 100) |
| COC(=O)C1=CC[C@H](NC(=O)C2(C(=O)Nc3cc(Cl)cc(Cl)c3)C=CCO2)C1 (single isomer, unassigned) [I.191] | very good (a very good herbicidal activity is given at values of 90 to 100) | very good (a very good herbicidal activity is given at values of 90 to 100) | very good (a very good herbicidal activity is given at values of 90 to 100) | very good (a very good herbicidal activity is given at values of 90 to 100) | very good (a very good herbicidal activity is given at values of 90 to 100) |  |
| COC(=O)C1C=CC(NC(=O)C2(C(=O)Nc3cc(F)cc(F)c3)CCCO2)C1 (stereo not shown) [I.109] | very good (a very good herbicidal activity is given at values of 90 to 100) |  | very good (a very good herbicidal activity is given at values of 90 to 100) |  | very good (a very good herbicidal activity is given at values of 90 to 100) | herbicidal activity against AVEFA (Avena fatua (AVEFA)): very good (a very good herbicidal activity is given at values of 90 to 100); herbicidal activity against ECHCG ([3]; 0.250 kg/ha): good (A good herbicidal activity is given at values of 70 to <90); herbicidal activity against SETFA (Setaria faberi (SETFA)): very good (a very good herbicidal activity is given at values of 90 to 100) |
